PubChem BioAssay AID1159578, Peter MacCallum Cancer Centre – 2015
In all, the deposit lists about 18,000 reagents; this is a part drawn at random. Of all reagents, about 1,030 (5.7%) are marked active. 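Inactive calls also include pools with fewer than 3300 nuclei, whose migration was not assessed.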 The raw values are shown without normalisation. Entries without a mark were called inactive. No sequences are given here.

- Aim: 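Genome-wide hunt for genes controlling movement of lymphatic endothelial cells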 (primary screen)
- Cell system: human lymphatic endothelial cells
- Reagent: siRNA pool against human genes, 40 nM
- Time to read-out: 48 h after transfection
- Detection: 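Cells stained with dye and imaged after a scratch; covered wound area and nuclei counted, duplicates averaged, migration set against mock wells and turned into a robust z-score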
- Scale: migration robust z-score: higher = faster migration into the scratch; migration relative to mock: higher = more scratch area covered than mock; nuclei per well: higher = more cells in the well
- Hit rule: 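Migration changed when robust z exceeds 2 or falls below -2 and mean nuclei number is at least 3300; otherwise not called changed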
- Calls: active = migration changed; inactive = no migration change, or too few cells

target | migration robust z-score | migration class with cell-count check | migration relative to mock | nuclei per well, duplicate mean
FHIP2B (FHF complex subunit HOOK interacting protein 2B) | 1.34 | migration z between -2 and 2; enough cells | 1.23 | 6022
DUS4L (dihydrouridine synthase 4 like) | -0.94 | migration z between -2 and 2; enough cells | 0.64 | 5569
MRPL57 (mitochondrial ribosomal protein L57) | -0.69 | migration z between -2 and 2; enough cells | 0.71 | 5972
SMN2 (survival of motor neuron 2, centromeric) | -0.46 | migration z between -2 and 2; enough cells | 0.76 | 5849
MCCD1 (mitochondrial coiled-coil domain 1) | -1 | migration z between -2 and 2; enough cells | 0.62 | 5685
FBXO4 (F-box protein 4) | -3.27 (active) | migration z below -2; enough cells | 0.18 | 4852
SLC2A13 | 0.86 | migration z between -2 and 2; enough cells | 0.97 | 5744
MBTD1 (mbt domain containing 1) | -0.24 | migration z between -2 and 2; enough cells | 0.82 | 5735
PRR22 (proline rich 22) | -0.99 | migration z between -2 and 2; enough cells | 0.62 | 4625
PRB1 (proline rich protein BstNI subfamily 1) | 1.5 | migration z between -2 and 2; enough cells | 1.27 | 5617
FTH1 (ferritin heavy chain 1) | 0.4 | migration z between -2 and 2; enough cells | 0.98 | 7114
SYNPO2 (synaptopodin 2) | 0.34 | migration z between -2 and 2; enough cells | 0.97 | 5722
PRKAG3 (protein kinase AMP-activated non-catalytic subunit gamma 3) | -1.03 | under 3300 nuclei; migration not judged | 0.6 | 2638
GP9 (glycoprotein IX platelet) | -1.63 | migration z between -2 and 2; enough cells | 0.46 | 3982
ACSM1 (acyl-CoA synthetase medium chain family member 1) | -0.83 | migration z between -2 and 2; enough cells | 0.64 | 4733
BCAS1 (brain enriched myelin associated protein 1) | 2.11 (active) | migration z above 2; enough cells | 1.44 | 7695
TEX13A (testis expressed 13A) | -0.18 | migration z between -2 and 2; enough cells | 0.84 | 5816
STIP1 (stress induced phosphoprotein 1) | -0.38 | migration z between -2 and 2; enough cells | 0.79 | 7292
OR52M1 (olfactory receptor family 52 subfamily M member 1) | 0.93 | migration z between -2 and 2; enough cells | 1.12 | 6336
ITGA7 (integrin subunit alpha 7) | -0.8 | migration z between -2 and 2; enough cells | 0.65 | 5876
AGPAT5 (1-acylglycerol-3-phosphate O-acyltransferase 5) | 0.62 | migration z between -2 and 2; enough cells | 0.92 | 5306
FAAP20 (FA core complex associated protein 20) | -0.12 | migration z between -2 and 2; enough cells | 0.85 | 5772
FOSL1 (FOS like 1, AP-1 transcription factor subunit) | 0.02 | migration z between -2 and 2; enough cells | 0.81 | 4833
CRYBB1 (crystallin beta B1) | 2.66 (active) | migration z above 2; enough cells | 1.58 | 7050
QTRT1 (queuine tRNA-ribosyltransferase catalytic subunit 1) | 0.36 | migration z between -2 and 2; enough cells | 0.88 | 6621
TEAD2 (TEA domain transcription factor 2) | 0.39 | migration z between -2 and 2; enough cells | 0.99 | 5771

Already shown: entries from further up.
target | migration robust z-score | migration class with cell-count check | migration relative to mock | nuclei per well, duplicate mean
FBXO4 (F-box protein 4) | -3.27 (active) | migration z below -2; enough cells | 0.18 | 4852
SLC2A13 | 0.86 | migration z between -2 and 2; enough cells | 0.97 | 5744
MBTD1 (mbt domain containing 1) | -0.24 | migration z between -2 and 2; enough cells | 0.82 | 5735

The results go on:
target | migration robust z-score | migration class with cell-count check | migration relative to mock | nuclei per well, duplicate mean
PDE4B (phosphodiesterase 4B) | 1.68 | migration z between -2 and 2; enough cells | 1.13 | 6136
COX6C (cytochrome c oxidase subunit 6C) | 0.42 | migration z between -2 and 2; enough cells | 0.88 | 7378
CIAO2B (cytosolic iron-sulfur assembly component 2B) | 0.08 | migration z between -2 and 2; enough cells | 0.9 | 6480
UBN1 (ubinuclein 1) | 0.94 | migration z between -2 and 2; enough cells | 0.98 | 4534
E2F3 (E2F transcription factor 3) | -0.86 | migration z between -2 and 2; enough cells | 0.64 | 4528
TRIAP1 (TP53 regulated inhibitor of apoptosis 1) | 1.97 | migration z between -2 and 2; enough cells | 1.39 | 5428
PLAAT2 (phospholipase A and acyltransferase 2) | -0.94 | migration z between -2 and 2; enough cells | 0.64 | 5990
C1GALT1C1 (C1GALT1 specific chaperone 1) | -0.19 | migration z between -2 and 2; enough cells | 0.84 | 5194
LDLR (low density lipoprotein receptor) | -1.64 | migration z between -2 and 2; enough cells | 0.49 | 5401
MPP4 (MAGUK p55 scaffold protein 4) | -0.1 | migration z between -2 and 2; enough cells | 0.78 | 6394
ANAPC13 (anaphase promoting complex subunit 13) | -1.58 | migration z between -2 and 2; enough cells | 0.48 | 6590
PLCB4 (phospholipase C beta 4) | -0.78 | migration z between -2 and 2; enough cells | 0.66 | 5239
ABHD11 (abhydrolase domain containing 11) | -0.6 | migration z between -2 and 2; enough cells | 0.69 | 5722
